Results taken from publication PMC5234816.
Changes are numbered by the printed parent chain. Numbers in names are those of the source. No constants are given. Whether binding was seen depends on the method and setting. In cells and extracts the contact can be indirect. Some entries that bind do so weakly or less than the wild type. Sequences can lack the tags named with a protein.

The chains behind the UniProt entries cited, without tags or fusion partners. Residues count along the entry.
UniProt Q16620, residues 32-822: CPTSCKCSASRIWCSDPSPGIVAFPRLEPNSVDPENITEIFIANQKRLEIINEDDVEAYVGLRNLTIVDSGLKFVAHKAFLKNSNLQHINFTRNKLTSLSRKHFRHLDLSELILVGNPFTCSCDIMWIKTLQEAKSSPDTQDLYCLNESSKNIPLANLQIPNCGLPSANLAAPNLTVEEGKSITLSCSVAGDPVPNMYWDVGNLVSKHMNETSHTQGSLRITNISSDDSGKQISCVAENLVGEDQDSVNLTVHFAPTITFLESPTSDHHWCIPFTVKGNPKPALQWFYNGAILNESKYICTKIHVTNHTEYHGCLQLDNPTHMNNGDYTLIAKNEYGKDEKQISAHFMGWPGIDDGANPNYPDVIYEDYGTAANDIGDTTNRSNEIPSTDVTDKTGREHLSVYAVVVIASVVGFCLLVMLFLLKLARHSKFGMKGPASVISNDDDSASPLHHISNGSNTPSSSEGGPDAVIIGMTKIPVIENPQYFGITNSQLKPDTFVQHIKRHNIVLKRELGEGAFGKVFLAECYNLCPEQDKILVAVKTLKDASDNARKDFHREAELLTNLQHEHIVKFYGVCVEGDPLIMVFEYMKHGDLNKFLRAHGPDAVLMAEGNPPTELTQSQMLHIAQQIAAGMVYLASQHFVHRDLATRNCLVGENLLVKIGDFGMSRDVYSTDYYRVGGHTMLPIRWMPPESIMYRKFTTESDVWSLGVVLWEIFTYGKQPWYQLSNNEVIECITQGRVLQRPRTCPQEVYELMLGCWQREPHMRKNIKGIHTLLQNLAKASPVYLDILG

B1: HA-tagged wild type SLITRK5 (SLIT and NTRK-Like Family, Member 5), ancestral human allele (receptor, UniProt O94991 41-958)
chain: IDYYGEICDNACPCEEKDGILTVSCENRGIISLSEISPPRFPIYHLLLSGNLLNRLYPNEFVNYTGASILHLGSNVIQDIETGAFHGLRGLRRLHLNNNKLELLRDDTFLGLENLEYLQVDYNYISVIEPNAFGKLHLLQVLILNDNLLSSLPNNLFRFVPLTHLDLRGNRLKLLPYVGLLQHMDKVVELQLEENPWNCSCELISLKDWLDSISYSALVGDVVCETPFRLHGRDLDEVSKQELCPRRLISDYEMRPQTPLSTTGYLHTTPASVNSVATSSSAVYKPPLKPPKGTRQPNKPRVRPTSRQPSKDLGYSNYGPSIAYQTKSPVPLECPTACSCNLQISDLGLNVNCQERKIESIAELQPKPYNPKKMYLTENYIAVVRRTDFLEATGLDLLHLGNNRISMIQDRAFGDLTNLRRLYLNGNRIERLSPELFYGLQSLQYLFLQYNLIREIQSGTFDPVPNLQLLFLNNNLLQAMPSGVFSGLTLLRLNLRSNHFTSLPVSGVLDQLKSLIQIDLHDNPWDCTCDIVGMKLWVEQLKVGVLVDEVICKAPKKFAETDMRSIKSELLCPDYSDVVVSTPTPSSIQVPARTSAVTPAVRLNSTGAPASLGAGGGASSVPLSVLILSLLLVFIMSVFVAAGLFVLVMKRRKKNQSDHTSTNNSDVSSFNMQYSVYGGGGGTGGHPHAHVHHRGPALPKVKTPAGHVYEYIPHPLGHMCKNPIYRSREGNSVEDYKDLHELKVTYSSNHHLQQQQQPPPPPQQPQQQPPPQLQLQPGEEERRESHHLRSPAYSVSTIEPREDLLSPVQDADRFYRGILEPDKHCSTTPAGNSLPEYPKFPCSPAAYTFSPNYDLRRPHQYLHPGAGDSRLREPVLYSPPSAVFVEPNRNEYLELKAKLNVEPDYLEVLEKQTTFSQF
B2: HA-tagged SLITRK5 N99K (rare non-synonymous mutation from an OCD subject) (receptor, UniProt O94991 41-958)
chain: B1 chain with N59K
B3: HA-tagged SLITRK5 E600K (rare non-synonymous mutation from an OCD subject) (receptor, UniProt O94991 41-958)
chain: B1 chain with E560K
B4: HA-tagged SLITRK5 G722Δ (rare amino acid deletion from an OCD subject) (receptor, UniProt O94991 41-958)
chain: IDYYGEICDNACPCEEKDGILTVSCENRGIISLSEISPPRFPIYHLLLSGNLLNRLYPNEFVNYTGASILHLGSNVIQDIETGAFHGLRGLRRLHLNNNKLELLRDDTFLGLENLEYLQVDYNYISVIEPNAFGKLHLLQVLILNDNLLSSLPNNLFRFVPLTHLDLRGNRLKLLPYVGLLQHMDKVVELQLEENPWNCSCELISLKDWLDSISYSALVGDVVCETPFRLHGRDLDEVSKQELCPRRLISDYEMRPQTPLSTTGYLHTTPASVNSVATSSSAVYKPPLKPPKGTRQPNKPRVRPTSRQPSKDLGYSNYGPSIAYQTKSPVPLECPTACSCNLQISDLGLNVNCQERKIESIAELQPKPYNPKKMYLTENYIAVVRRTDFLEATGLDLLHLGNNRISMIQDRAFGDLTNLRRLYLNGNRIERLSPELFYGLQSLQYLFLQYNLIREIQSGTFDPVPNLQLLFLNNNLLQAMPSGVFSGLTLLRLNLRSNHFTSLPVSGVLDQLKSLIQIDLHDNPWDCTCDIVGMKLWVEQLKVGVLVDEVICKAPKKFAETDMRSIKSELLCPDYSDVVVSTPTPSSIQVPARTSAVTPAVRLNSTGAPASLGAGGGASSVPLSVLILSLLLVFIMSVFVAAGLFVLVMKRRKKNQSDHTSTNNSDVSSFNMQYSVYGGGGTGGHPHAHVHHRGPALPKVKTPAGHVYEYIPHPLGHMCKNPIYRSREGNSVEDYKDLHELKVTYSSNHHLQQQQQPPPPPQQPQQQPPPQLQLQPGEEERRESHHLRSPAYSVSTIEPREDLLSPVQDADRFYRGILEPDKHCSTTPAGNSLPEYPKFPCSPAAYTFSPNYDLRRPHQYLHPGAGDSRLREPVLYSPPSAVFVEPNRNEYLELKAKLNVEPDYLEVLEKQTTFSQF
B5: HA-tagged SLITRK5 Q118H (pseudo-matched control mutation from the 1000 Genomes database) (receptor, UniProt O94991 41-958)
chain: B1 chain with Q78H
B6: HA-tagged SLITRK5 P891L (pseudo-matched control mutation from the 1000 Genomes database) (receptor, UniProt O94991 41-958)
chain: B1 chain with P851L

target: FLAG-tagged TrkB (UniProt Q16620); experiment: co-IP; HEK-293 cells transfected with FLAG-tagged TrkB and HA-tagged SLITRK5 alleles; resting condition

binding, binds:
B1
B2
B3
B4
B5
B6
